# Measurements published in the supplement of paper PMC4604168 (melanoma cell lines).
# The other results are listed elsewhere or left out. Single values are uncertain, as repeats are few or missing.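 Cells were imaged in 1,536-well plates, and nuclei stained with an antibody against cleaved PARP were counted against all DNA-stained nuclei to give the apoptosis fraction. Screening doses were chosen to leave most cells alive, and resting and induced cleaved-PARP levels differ strongly between cell lines.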
# What was measured:
# Test in all cases: cleaved PARP positive nuclei fraction relative to DMSO control; melanoma cells; higher = more apoptosis
# Settings in all cases: library dose: low library concentration; 72 h
# WM115 = test system: WM115
# WM1716 = test system: WM1716
# WM1745 = test system: WM1745
# WM3526 = test system: WM3526
# WM3619 = test system: WM3619
# WM451Lu = test system: WM451Lu
Structure (SMILES),cleaved PARP positive nuclei fraction (WM115) [%],cleaved PARP positive nuclei fraction (WM1716) [%],cleaved PARP positive nuclei fraction (WM1745) [%],cleaved PARP positive nuclei fraction (WM3526) [%],cleaved PARP positive nuclei fraction (WM3619) [%],cleaved PARP positive nuclei fraction (WM451Lu) [%]
"CCN(CC)CCNC(=O)c1c(C)[nH]c(/C=C2\C(=O)Nc3ccc(F)cc32)c1C [sunitinib] + O=C(O)C(=O)Nc1sc2c(c1C(=O)O)CCNC2 [TCS401] (first compound 0.4 µM, partner dose 1.66667 µM)",147,191,113,32.2,99.5,69.6
"NC(=O)c1ccc(N(C(N)=O)c2c(F)cccc2F)nc1-c1ccc(F)cc1F + OCCn1cc(-c2cnc3nnn(Cc4ccc5ncccc5c4)c3n2)cn1 [PF04217903] (first compound 0.4 µM, partner dose 1 µM)",65.4,96.1,86.5,68,103,458
"CC1(C)CCC(c2ccc(Cl)cc2)=C(CN2CCN(c3ccc(C(=O)NS(=O)(=O)c4ccc(N[C@H](CCN5CCOCC5)CSc5ccccc5)c(S(=O)(=O)C(F)(F)F)c4)cc3)CC2)C1 + OCCn1cc(-c2cnc3nnn(Cc4ccc5ncccc5c4)c3n2)cn1 [PF04217903] (first compound 0.4 µM, partner dose 1 µM)",195,399,395,34.6,113,55.8
"CC1(C)CCC(c2ccc(Cl)cc2)=C(CN2CCN(c3ccc(C(=O)NS(=O)(=O)c4ccc(N[C@H](CCN5CCOCC5)CSc5ccccc5)c(S(=O)(=O)C(F)(F)F)c4)cc3)CC2)C1 + Cn1c(Nc2ccc(C(F)(F)F)cc2)nc2cc(Oc3ccnc(-c4ncc(C(F)(F)F)[nH]4)c3)ccc21 [CHIR265] (first compound 0.4 µM, partner dose 0.08 µM)",5820,509,2010,296,227,123
"Cn1cnc2c(F)c(Nc3ccc(Br)cc3Cl)c(C(=O)NOCCO)cc21 [selumetinib] + Cc1nc(Nc2ncc(C(=O)Nc3c(C)cccc3Cl)s2)cc(N2CCN(CCO)CC2)n1 [dasatanib] (first compound 0.015 µM, partner dose 0.004 µM)",321,34.1,117,55.1,127,81
"C[C@]1(O)C[C@@H](c2nc(-c3ccc4ccc(-c5ccccc5)nc4c3)c3c(N)nccn32)C1 + COc1ccc(Cl)c(Nc2nc3ccccc3nc2NS(=O)(=O)c2cccc(NC(=O)C(C)(C)N)c2)c1 [XL147] (first compound 0.4 µM, partner dose 0.8 µM)",44.7,62,118,52.8,198,157
"CCN(CC)CCNC(=O)c1c(C)[nH]c(/C=C2\C(=O)Nc3ccc(F)cc32)c1C [sunitinib] + N#Cc1c(O)c2c(-c3ccc(-c4ccccc4O)cc3)csc2[nH]c1=O [A769662] (first compound 0.4 µM, partner dose 2 µM)",150,76.8,103,71.2,89.8,62.7
"CS(=O)(=O)c1ccc(C(=O)Nc2ccc(Cl)c(-c3ccccn3)c2)c(Cl)c1 [vismodegib] + Cn1c(=O)n(-c2ccc(C(C)(C)C#N)cc2)c2c3cc(-c4cnc5ccccc5c4)ccc3ncc21 [NVP-BEZ235] (first compound 1 µM, partner dose 0.004 µM)",103,22.8,91.3,19.2,99.6,88.8
"C[C@@H](N)c1ccc(C(=O)Nc2ccnc3[nH]ccc23)cc1 + COCC[n+]1c2c(n(Cc3cnccn3)c1C)C(=O)c1ccccc1C2=O [YM155] (first compound 0.4 µM, partner dose 0.0004 µM)",17.6,203,115,63,62.9,59.2
"CN(c1ncccc1CNc1nc(Nc2ccc3c(c2)CC(=O)N3)ncc1C(F)(F)F)S(C)(=O)=O + O=C(Nc1cccc(Cl)c1)Nc1ncc(CCNc2ncnc3ccsc23)s1 [SNS314] (first compound 0.08 µM, partner dose 0.0008 µM)",99.9,111,112,44.5,179,138
"CC(=O)O[C@@]12CO[C@@H]1C[C@H](O)[C@@]1(C)C(=O)[C@H](O)C3=C(C)[C@@H](OC(=O)[C@H](O)[C@@H](NC(=O)OC(C)(C)C)c4ccccc4)C[C@@](O)([C@@H](OC(=O)c4ccccc4)[C@H]21)C3(C)C [Docetaxel] + OCCn1cc(-c2cnc3nnn(Cc4ccc5ncccc5c4)c3n2)cn1 [PF04217903] (first compound 0.0001 µM, partner dose 1 µM)",696,646,168,134,143,620
"NC1(c2ccc(-c3nc4ccn5c(=O)[nH]nc5c4cc3-c3ccccc3)cc2)CCC1 + COc1ccc(Cl)c(Nc2nc3ccccc3nc2NS(=O)(=O)c2cccc(NC(=O)C(C)(C)N)c2)c1 [XL147] (first compound 0.4 µM, partner dose 0.8 µM)",187,154,103,52.1,97.1,96
"COc1ccc(C2=N[C@@H](c3ccc(Cl)cc3)[C@@H](c3ccc(Cl)cc3)N2C(=O)N2CCNC(=O)C2)c(OC(C)C)c1 [Nutlin-3] + CCCCCCCCc1ccc(CCC(N)(CO)CO)cc1 [fingolimod] (first compound 0.1 µM, partner dose 2 µM)",135,91.9,117,48.3,107,169
"CCCCCCCCc1ccc(CCC(N)(CO)CO)cc1 [fingolimod] + Cn1c(Nc2ccc(C(F)(F)F)cc2)nc2cc(Oc3ccnc(-c4ncc(C(F)(F)F)[nH]4)c3)ccc21 [CHIR265] (first compound 2 µM, partner dose 0.08 µM)",511,218,132,180,162,84.7
"CS(=O)(=O)c1ccc(C(=O)Nc2ccc(Cl)c(-c3ccccn3)c2)c(Cl)c1 [vismodegib] + O=C(Nc1ccccc1)c1cc([N+](=O)[O-])ccc1Cl [GW9662] (first compound 1 µM, partner dose 2 µM)",51.1,50.3,80.4,130,150,65.1
"CC(=O)O[C@@]12CO[C@@H]1C[C@H](O)[C@@]1(C)C(=O)[C@H](O)C3=C(C)[C@@H](OC(=O)[C@H](O)[C@@H](NC(=O)OC(C)(C)C)c4ccccc4)C[C@@](O)([C@@H](OC(=O)c4ccccc4)[C@H]21)C3(C)C [Docetaxel] + CO[C@H]1C[C@@H]2CC[C@@H](C)[C@@](O)(O2)C(=O)C(=O)N2CCCC[C@H]2C(=O)O[C@H]([C@H](C)C[C@@H]2CC[C@@H](OCCO)[C@H](OC)C2)CC(=O)[C@H](C)/C=C(\C)[C@@H](O)[C@@H](OC)C(=O)[C@H](C)C[C@H](C)/C=C/C=C/C=C/1C [everolimus] (first compound 0.0001 µM, partner dose 0.02 µM)",729,591,181,300,129,185
"Cn1cnc2c(F)c(Nc3ccc(Br)cc3Cl)c(C(=O)NOCCO)cc21 [selumetinib] + CC(C)C[C@H](NC(=O)[C@H](Cc1ccccc1)NC(=O)c1cnccn1)B(O)O [Bortezomib] (first compound 0.015 µM, partner dose 0.001 µM)",153,55.3,110,27.4,269,101
"NC1(c2ccc(-c3nc4ccn5c(=O)[nH]nc5c4cc3-c3ccccc3)cc2)CCC1 + CS(=O)(=O)CCNCc1ccc(-c2ccc3ncnc(Nc4ccc(OCc5cccc(F)c5)c(Cl)c4)c3c2)o1 [lapatinib] (first compound 0.4 µM, partner dose 0.8 µM)",223,84.3,117,149,103,99.7
"Cn1sc(=O)n(Cc2ccccc2)c1=O + COc1ccc(Cl)c(Nc2nc3ccccc3nc2NS(=O)(=O)c2cccc(NC(=O)C(C)(C)N)c2)c1 [XL147] (first compound 0.4 µM, partner dose 0.8 µM)",75.6,82.4,98.3,36.4,95.1,71.5
"C[C@@H](N)c1ccc(C(=O)Nc2ccnc3[nH]ccc23)cc1 + COc1ccc2c(c1)CCC1C2CCC2(C)C(NCCCCCCN3C(=O)C=CC3=O)CCC12 [U73122] (first compound 0.4 µM, partner dose 0.4 µM)",14.6,60,108,60.7,137,66.1
"CCCCCCCCc1ccc(CCC(N)(CO)CO)cc1 [fingolimod] + O=C(O)C(=O)Nc1sc2c(c1C(=O)O)CCNC2 [TCS401] (first compound 2 µM, partner dose 1.66667 µM)",199,118,107,92,104,66.7
"CS(=O)(=O)c1ccc(C(=O)Nc2ccc(Cl)c(-c3ccccn3)c2)c(Cl)c1 [vismodegib] + Nc1ncn([C@H]2C[C@H](O)[C@@H](CO)O2)c(=O)n1 [decitabine] (first compound 1 µM, partner dose 0.1 µM)",128,74,108,24.9,87.8,95.6
"CC(=O)O[C@@]12CO[C@@H]1C[C@H](O)[C@@]1(C)C(=O)[C@H](O)C3=C(C)[C@@H](OC(=O)[C@H](O)[C@@H](NC(=O)OC(C)(C)C)c4ccccc4)C[C@@](O)([C@@H](OC(=O)c4ccccc4)[C@H]21)C3(C)C [Docetaxel] + c1cc(-c2cnn3cc(-c4ccc(OCCN5CCCCC5)cc4)cnc23)ccn1 [Dorsomorphin] (first compound 0.0001 µM, partner dose 0.4 µM)",1100,128,229,189,158,428
"NC1(c2ccc(-c3nc4ccn5c(=O)[nH]nc5c4cc3-c3ccccc3)cc2)CCC1 + NC(=O)Nc1cc(-c2cccc(F)c2)sc1C(=O)N[C@H]1CCCNC1 [AZD7762] (first compound 0.4 µM, partner dose 0.02 µM)",243,212,105,69.6,108,151

# Quoted from the listing:
# Under cleaved PARP positive nuclei fraction (WM3526) [%], CC(=O)O[C@@]12CO[C@@H]1C[C@H](O)[C@@]1(C)C(=O)[C@H](O)C3=C(C)[C@@H](OC(=O)[C@H](O)[C@@H](NC(=O)OC(C)(C)C)c4ccccc4)C[C@@](O)([C@@H](OC(=O)c4ccccc4)[C@H]21)C3(C)C [Docetaxel] + CO[C@H]1C[C@@H]2CC[C@@H](C)[C@@](O)(O2)C(=O)C(=O)N2CCCC[C@H]2C(=O)O[C@H]([C@H](C)C[C@@H]2CC[C@@H](OCCO)[C@H](OC)C2)CC(=O)[C@H](C)/C=C(\C)[C@@H](O)[C@@H](OC)C(=O)[C@H](C)C[C@H](C)/C=C/C=C/C=C/1C [everolimus] (first compound 0.0001 µM, partner dose 0.02 µM) has the entry 300
# Under cleaved PARP positive nuclei fraction (WM3526) [%], CC(=O)O[C@@]12CO[C@@H]1C[C@H](O)[C@@]1(C)C(=O)[C@H](O)C3=C(C)[C@@H](OC(=O)[C@H](O)[C@@H](NC(=O)OC(C)(C)C)c4ccccc4)C[C@@](O)([C@@H](OC(=O)c4ccccc4)[C@H]21)C3(C)C [Docetaxel] + c1cc(-c2cnn3cc(-c4ccc(OCCN5CCCCC5)cc4)cnc23)ccn1 [Dorsomorphin] (first compound 0.0001 µM, partner dose 0.4 µM) has the entry 189
